# Source: PubChem BioAssay AID504444 (National Center for Advancing Translational Sciences (NCATS), 2011)
# About 7,500 (2.1%) of roughly 360,000 compounds were called active. The shares of active, inactive and inconclusive entries below differ from those in the screen. The call rests on the fitted dose curve; in most records, active means well fitted inhibition curve with a large enough effect; inconclusive means small, poorly fitted or top-dose-only effect, or effect the other way; inactive means flat fitted curve, though single readings scatter. A potency beside an inconclusive call is a rough fit, not a confirmed value.
# Test: Nrf2 qHTS screen for inhibitors; further: nearly all actives have a fitted effect of over 60% in size
# Conditions: A549 ARE-Fluc reporter, luciferase luminescence, 18-24 h; activity change, negative = inhibition: at 46 µM (top of the series)
# In short: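 Quantitative HTS in A549 cells stably bearing an antioxidant response element-firefly luciferase construct. Inhibition of Nrf2-driven transcription was scored by luminescence after 18-24 h of compound exposure at 37 °C.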
# On the % scale 0 is the no-effect control and ±100 the full control effect; potency means the concentration at half of the fitted maximal effect.
SMILES,Potency,"activity change, negative = inhibition"
C=CC[n+]1c(-c2ccc(C)cc2)csc1NNC(=O)Nc1ccccc1,active: 18.4 µM,
Cc1c(-c2cccc(Cl)c2)nc2ccccc2c1C(=O)OC/C(O)=C(\C#N)c1nc2ccccc2[nH]1,"inconclusive: 18.4 µM [falling, single point]",
CS(=O)(=O)c1ccc(C(=O)Nc2ccc(N3CCCC3)cc2)c(Cl)c1,,inactive: 0.691%
COCCN(C(=O)CSc1nnc(-c2ccco2)n1C)c1c(N)n(CC(C)C)c(=O)[nH]c1=O,,inactive: 0.477%
Cc1ccc(-n2nc3c(=O)n(CCCC(=O)NCCc4ccccc4)nc(C)c3c2C)cc1,"inconclusive: 9.2 µM [activator, partial curve, poor fit]",
CC(C)Nc1nc(C#N)nc(Nc2ccccc2)n1,,inactive: 18.9%
Cc1cccc(CCNC(=O)CCS(=O)(=O)c2cc3c(cc2Cl)NC(=O)CO3)c1,"inconclusive: 29.1 µM [activator, single point]",
O=C(NCC(c1cccs1)N1CCOCC1)c1ccccc1NS(=O)(=O)c1cccc([N+](=O)[O-])c1 (stereo not drawn),active: 20.6 µM,
CC(=O)N1CCSc2ccc(S(=O)(=O)NCCc3ccc(Cl)cc3)cc21,active: 14.6 µM,
CCc1ccc2[nH]c(=O)c(CN(CCN(CC)CC)C(=O)Nc3ccccc3OC)cc2c1,"inconclusive: 20.6 µM [activator, single point]",
COc1ccc(CNc2cc(NCCCO)c([N+](=O)[O-])c3nonc23)cc1,"inconclusive: 23.1 µM [falling, single point]",
CC1CCCN(c2ccc(C(=O)NCc3ccco3)cc2[N+](=O)[O-])C1 (stereo not drawn),"inconclusive: 6.51 µM [falling, partial curve, poor fit]",
O=C(OC(C(=O)NCc1ccco1)c1ccc(Cl)cc1)c1cccs1 (stereo not drawn),"inconclusive: 2.31 µM [falling, single point]",
COc1ccc(CC(NC(C)=O)C(=O)NC2CCN(C(=O)C3CCCCC3)CC2)c(OC)c1 (stereo not drawn),,inactive: -17.1%
COc1ccc(CN(C(=O)c2cccs2)c2nccs2)cc1OC,"inconclusive: 29.1 µM [falling, single point]",
C=C1C[C@@]23CCC4[C@@](C)(CCC[C@@]4(C)C(=O)OC)C2CC[C@]1(OC(C)=O)C3 (stereo partly drawn),"inconclusive: 20.6 µM [falling, partial curve, poor fit]",
COc1ccc(NC(=O)N2CCCC(CCC(=O)N(C)CCc3ccccn3)C2)cc1 (stereo not drawn),"inconclusive: 16.4 µM [activator, partial curve, poor fit]",
CCN(CC)S(=O)(=O)c1cccc(C(=O)Nc2ccc(S(=O)(=O)NC3=NCCCCC3)cc2)c1,"inconclusive: 29.1 µM [falling, single point]",
COc1cccc(/C=N/n2c(-c3ccco3)nc3ccccc3c2=O)c1OC,,inactive: -5.15%
O=C(c1ccc(F)cc1)C(CN1CCOCC1)c1ccccc1 (stereo not drawn),,inactive: -29.4%
CNC(=S)N(CCc1c(C)[nH]c2ccc(Cl)cc12)Cc1cc(OC)c(OC)c(OC)c1,"inconclusive: 16.4 µM [falling, single point]",
COc1cc(Cl)c(C)cc1NC(=O)CCn1c(=O)c2cccn2c2cccnc21,"inconclusive: 3.26 µM [activator, full curve, poor fit]",
C=CC(=O)OCCOCCOCCOCCOC(=O)C=C,"inconclusive: 20.6 µM [activator, partial curve]",

SMILES,Potency,"activity change, negative = inhibition"
COc1cc(C(=O)Nc2ccc3c(c2)Cc2cc(NC(=O)c4cc(OC)c(OC)c(OC)c4)ccc2-3)cc(OC)c1OC,"inconclusive: 0.13 µM [falling, partial curve, poor fit]",
Cc1ccc(C(OC(=O)c2ccco2)C(=O)NC(C)(C)C)cc1 (stereo not drawn),"inconclusive: 7.31 µM [falling, partial curve, poor fit]",
CN(CC(=O)Nc1ccc(F)cc1)C(=O)c1ccccc1OCc1ccc(F)cc1,,inactive: 16.2%
CCOc1ccc2nc(NC(=O)CSc3cn[nH]n3)sc2c1,"inconclusive: 10.3 µM [activator, partial curve]",
Cn1c(=O)c2cc(S(=O)(=O)Nc3cc(C(=O)O)cc(C(=O)O)c3)ccc2n(C)c1=O,,inactive: 4.74%
O=S(=O)(c1ccc(Br)cc1)c1nnn2c1nc(NC1CCCCCC1)c1sccc12,,inactive: 2.63%
CCOc1ccc2nc(NC(=O)CN3C(=O)C4CCCCC4C3=O)sc2c1 (stereo not drawn),,inactive: 8.6%
COc1ccc(CN(Cc2nc3ccccc3c(=O)[nH]2)C(=O)NC2CCCCC2)cc1,,inactive: 1.2%
Brc1cccc(-c2nnc3sc(CN4CCC5(CC4)OCCO5)cn23)c1,"inconclusive: 29.1 µM [falling, partial curve, poor fit]",
O=S(=O)(Cc1ccc(Cl)cc1)CC(O)COCc1ccccc1 (stereo not drawn),"inconclusive: 29.1 µM [falling, single point]",
CCc1nc2cccnc2n1-c1ccc(CC(=O)Nc2ccccc2Cl)cc1,"inconclusive: 32.6 µM [falling, single point]",
COc1cccc(NC(=O)CN(C)C(=O)C2CC(=O)N(CCc3ccc(OC)c(OC)c3)C2)c1 (stereo not drawn),"inconclusive: 11.6 µM [falling, partial curve, poor fit]",
CN(C)c1ccc(C=C2C=Cc3ccccc32)cc1,"inconclusive: 1.64 µM [activator, full curve]",
Cc1cccc(C)c1N1CCN(C(=O)Nc2ccc3c(c2)OCCO3)CC1,,inactive: -35.6%
O=C(Nc1ccc(Cl)cc1)N1CCN(C(=O)C2CCCO2)CC1 (stereo not drawn),,inactive: -13%
Cc1noc(C)c1-c1nc(CSc2ccccc2)no1,"inconclusive: 16.4 µM [activator, single point]",
O=C(Nc1ccc(S(=O)(=O)Nc2ccccn2)cc1)c1cccc(Br)c1,"inconclusive: 18.4 µM [falling, single point]",
Cc1ccc(C)n1-c1nnc(N2CCC(C(=O)NCc3ccc(F)cc3)CC2)s1,,inactive: 0.0316%
COc1ccccc1-c1noc(CSc2nnc(Cc3ccccc3)n2-c2ccc(C)c(C)c2)n1,active: 23.1 µM,
O=C(CN1C(=O)NC2(CCCCC2)C1=O)Nc1cccc2ncccc12,"inconclusive: 4.61 µM [falling, full curve, poor fit]",
Cc1cc2c(s1)c1cnn(Cc3ccc(C#N)cc3)c(=O)c1n2C,,inactive: 7.02%
Cc1ccc(C(=O)NC(=S)Nc2ccc(-c3cc4ccccc4oc3=O)cc2)c(C)c1,"inconclusive: 5.8 µM [falling, partial curve]",
CC(C)(CNc1ccc([N+](=O)[O-])cc1C#N)N1CCOCC1,,inactive: -5.17%

# Pulled by structure from above, 5 records:
SMILES,Potency,"activity change, negative = inhibition"
COc1ccc(CN(Cc2nc3ccccc3c(=O)[nH]2)C(=O)NC2CCCCC2)cc1,,inactive: 1.2%
CN(CC(=O)Nc1ccc(F)cc1)C(=O)c1ccccc1OCc1ccc(F)cc1,,inactive: 16.2%
O=S(=O)(c1ccc(Br)cc1)c1nnn2c1nc(NC1CCCCCC1)c1sccc12,,inactive: 2.63%
Cc1cc2c(s1)c1cnn(Cc3ccc(C#N)cc3)c(=O)c1n2C,,inactive: 7.02%
O=C(CN1C(=O)NC2(CCCCC2)C1=O)Nc1cccc2ncccc12,"inconclusive: 4.61 µM [falling, full curve, poor fit]",

# (cont.)

SMILES,Potency,"activity change, negative = inhibition"
CN(C)c1nc2ccc(OCCN3CCCCC3)cc2s1,"inconclusive: 3.66 µM [activator, full curve]",
COc1cccc(NS(=O)(=O)Cc2ccccc2)c1,,inactive: 8.58%
Nc1nc(NCc2ccco2)nn1-c1ccccc1,"inconclusive: 23.1 µM [activator, partial curve]",
Cc1cc(NC(=O)Nc2ccc(Cl)c(Cl)c2)n(-c2ccccc2)n1,"inconclusive: 32.6 µM [falling, single point]",
COc1cc(-c2cc(C(=O)Nc3cccc(C(C)=O)c3)c3ccccc3n2)cc(OC)c1OC,"inconclusive: 20.6 µM [falling, single point]",
O=C(c1ccc(Cn2c(=O)[nH]c3ccsc3c2=O)cc1)N1CCN(c2ccccc2)CC1,"inconclusive: 32.6 µM [falling, single point]",
Cc1cc2c(cc1C)C(c1ccccc1F)CC(=O)N2 (stereo not drawn),,inactive: -16.9%
O=[N+]([O-])c1cccc(-c2ccc(/C=N/NC(=S)Nc3cccc(F)c3)o2)c1,"inconclusive: 20.6 µM [falling, single point]",
CCOc1ccccc1C1C(C#N)=C(SCC(=O)OC)NC(=O)C1C(=O)OC (stereo not drawn),,inactive: -11.5%
CC(=O)c1ccc(N2CCN(C(=O)[C@H](C)NC(=O)c3ccccc3Cl)CC2)cc1,"inconclusive: 29.1 µM [activator, single point]",
CC(=O)Nc1ccc(NC(=S)NC(=O)/C=C/c2ccco2)cc1,"inconclusive: 2.06 µM [activator, partial curve, poor fit]",
Cc1cccc(C)c1OCCCCn1c(C2CC(=O)N(c3ccc(F)cc3)C2)nc2ccccc21 (stereo not drawn),active: 20.6 µM,
CC(=O)c1ccc(N2CCN(C(=O)c3ccc4[nH]c(C)c(C)c4c3)CC2)cc1,"inconclusive: 18.4 µM [falling, single point]",
O=c1cc(CN2CCN(S(=O)(=O)c3ccccc3)CC2)nc2ccc(Cl)cn12,"inconclusive: 8.2 µM [falling, partial curve, poor fit]",
Cn1c(=O)c2sccc2n2c(CCC(=O)N3CCN(c4ccccc4)CC3)nnc12,"inconclusive: 14.6 µM [falling, partial curve, poor fit]",
CCOc1ccc(CN2CCN(S(=O)(=O)c3ccc(NC(C)=O)cc3)CC2)cc1,active: 20.6 µM,
NS(=O)(=O)c1ccc(CCNS(=O)(=O)Cc2ccc(Cl)cc2)cc1,"inconclusive: 7.31 µM [falling, partial curve]",
COc1ccc(S(=O)(=O)Nc2ccc3c(c2)n(C)c(=O)n3C)cc1C,"inconclusive: 29.1 µM [falling, single point]",
CC1=NNC(=O)/C1=C\c1cn(-c2ccccc2)nc1-c1ccccc1,"inconclusive: 29.1 µM [falling, single point]",
O=c1c2ccccc2oc2cc(-c3ccc4[nH]ccc4c3)ccc12,"inconclusive: 4.11 µM [activator, full curve]",
CC(C)(C)C(=O)OCCNc1nc(-c2cccs2)nc2ccccc12,,inactive: -10.7%
COCc1cc(C)[nH]c(=O)c1C(=O)NC12CC3CC(CC(C3)C1)C2,"inconclusive: 23.1 µM [activator, single point]",
